Results of single-concentration screens

By UniProt entry, the sequences of proteins in these tests, tags left out. Residues count along the entry.
UniProt I6X8D2, whole entry: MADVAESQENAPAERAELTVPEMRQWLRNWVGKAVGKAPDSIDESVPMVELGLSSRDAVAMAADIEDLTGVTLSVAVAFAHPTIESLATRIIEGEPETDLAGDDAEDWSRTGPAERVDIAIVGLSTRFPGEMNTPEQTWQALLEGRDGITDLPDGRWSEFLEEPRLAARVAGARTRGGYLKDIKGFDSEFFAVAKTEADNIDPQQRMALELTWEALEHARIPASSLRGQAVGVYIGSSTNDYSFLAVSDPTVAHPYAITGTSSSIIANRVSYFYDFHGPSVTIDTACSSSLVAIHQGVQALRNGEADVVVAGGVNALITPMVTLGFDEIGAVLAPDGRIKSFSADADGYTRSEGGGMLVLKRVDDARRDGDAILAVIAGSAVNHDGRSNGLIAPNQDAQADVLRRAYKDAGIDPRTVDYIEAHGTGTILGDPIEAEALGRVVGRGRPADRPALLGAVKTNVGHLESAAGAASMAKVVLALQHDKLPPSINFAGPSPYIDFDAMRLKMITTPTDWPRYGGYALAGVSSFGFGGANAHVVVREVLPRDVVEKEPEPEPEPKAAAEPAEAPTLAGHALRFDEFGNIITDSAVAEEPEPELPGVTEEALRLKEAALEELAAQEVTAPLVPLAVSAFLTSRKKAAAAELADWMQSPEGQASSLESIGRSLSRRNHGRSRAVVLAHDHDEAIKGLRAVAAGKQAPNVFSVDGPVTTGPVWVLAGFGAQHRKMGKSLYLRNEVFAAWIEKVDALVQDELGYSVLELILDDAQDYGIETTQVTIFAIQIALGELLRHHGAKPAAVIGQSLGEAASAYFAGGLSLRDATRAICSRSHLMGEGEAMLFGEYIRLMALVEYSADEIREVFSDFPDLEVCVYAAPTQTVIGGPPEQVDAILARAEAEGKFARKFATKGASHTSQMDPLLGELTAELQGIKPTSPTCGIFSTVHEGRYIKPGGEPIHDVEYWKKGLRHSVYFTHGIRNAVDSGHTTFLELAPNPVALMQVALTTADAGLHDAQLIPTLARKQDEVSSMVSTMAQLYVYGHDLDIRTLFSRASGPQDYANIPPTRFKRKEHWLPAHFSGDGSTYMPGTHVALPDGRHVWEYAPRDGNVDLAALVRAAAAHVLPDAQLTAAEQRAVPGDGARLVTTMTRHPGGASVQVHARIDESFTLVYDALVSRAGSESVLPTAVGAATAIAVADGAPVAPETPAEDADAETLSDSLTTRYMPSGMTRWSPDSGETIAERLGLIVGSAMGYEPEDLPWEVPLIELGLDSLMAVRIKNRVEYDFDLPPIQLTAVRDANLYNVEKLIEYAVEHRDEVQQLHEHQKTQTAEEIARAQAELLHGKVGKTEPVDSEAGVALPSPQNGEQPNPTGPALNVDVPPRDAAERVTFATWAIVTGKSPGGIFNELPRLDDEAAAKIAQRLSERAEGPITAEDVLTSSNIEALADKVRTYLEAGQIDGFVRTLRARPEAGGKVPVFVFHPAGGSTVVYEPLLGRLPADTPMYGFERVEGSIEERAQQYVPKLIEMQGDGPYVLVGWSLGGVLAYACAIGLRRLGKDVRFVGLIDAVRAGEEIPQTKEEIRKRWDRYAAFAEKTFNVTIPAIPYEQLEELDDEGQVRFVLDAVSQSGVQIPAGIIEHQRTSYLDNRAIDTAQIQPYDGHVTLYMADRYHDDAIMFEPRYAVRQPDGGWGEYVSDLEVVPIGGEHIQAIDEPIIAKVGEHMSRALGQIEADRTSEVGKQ
UniProt A4I591, 1-473: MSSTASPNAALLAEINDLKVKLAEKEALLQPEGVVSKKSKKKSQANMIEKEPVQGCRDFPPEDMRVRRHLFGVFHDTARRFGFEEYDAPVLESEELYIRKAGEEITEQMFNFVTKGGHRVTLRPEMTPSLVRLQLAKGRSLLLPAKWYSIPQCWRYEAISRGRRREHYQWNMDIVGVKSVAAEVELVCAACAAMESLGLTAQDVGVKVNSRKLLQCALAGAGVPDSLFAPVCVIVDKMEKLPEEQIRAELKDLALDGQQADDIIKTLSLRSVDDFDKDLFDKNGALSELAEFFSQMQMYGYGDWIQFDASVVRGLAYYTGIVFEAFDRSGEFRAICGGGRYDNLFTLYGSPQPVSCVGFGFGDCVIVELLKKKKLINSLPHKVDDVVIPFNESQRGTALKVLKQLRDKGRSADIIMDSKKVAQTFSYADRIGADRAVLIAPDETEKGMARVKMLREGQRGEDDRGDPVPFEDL
UniProt P9WNZ1, whole entry: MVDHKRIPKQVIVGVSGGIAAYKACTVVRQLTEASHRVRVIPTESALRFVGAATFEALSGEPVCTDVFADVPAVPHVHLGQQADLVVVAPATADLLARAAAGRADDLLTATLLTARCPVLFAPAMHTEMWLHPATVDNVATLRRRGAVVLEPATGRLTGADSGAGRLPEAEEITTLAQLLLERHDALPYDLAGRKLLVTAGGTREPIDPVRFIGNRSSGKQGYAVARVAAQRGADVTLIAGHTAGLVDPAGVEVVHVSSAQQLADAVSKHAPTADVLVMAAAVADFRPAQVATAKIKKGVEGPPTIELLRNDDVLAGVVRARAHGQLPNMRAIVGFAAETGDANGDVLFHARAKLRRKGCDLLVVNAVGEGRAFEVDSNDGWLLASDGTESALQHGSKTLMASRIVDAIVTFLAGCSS

The values are deposited in ChEMBL (CHEMBL3988442, “University of Dundee, Small-Polar-MMV Screening Library” (2021)).

A: 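Polyketide synthase Pks13, Mycobacterium tuberculosis (UniProt I6X8D2). Enzyme assay of the thioesterase domain of polyketide synthase 13; the read-out is not stated. Concentration: 30 µM. Higher reads as stronger inhibition (inferred from which compounds were picked for retests). Size under these conditions: about 67,000 compounds, about 300 of them at 50% or above in at least one test.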
B: 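Histidine-tRNA ligase, Leishmania infantum (UniProt A4I591). Enzyme assay of histidyl-tRNA synthetase; the read-out is not stated. Concentration: 30 µM. Higher reads as stronger inhibition (inferred: compounds with an IC50 in retests scored well above the rest). The assay is labelled LdHisRS but filed under L. infantum. About 69,000 compounds were tested under these conditions; 0.6% (about 410) showed 50% or more at least once.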
C: 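Coenzyme A biosynthesis protein CoaBC, Mycobacterium tuberculosis (UniProt P9WNZ1). Enzyme assay of CoaBC with a phosphate dye (Biomol Green) read at 650 nm. Concentration: 30 µM. Direction is inferred from only a few compounds that gave an IC50; most scored high, so higher reads as stronger inhibition. Most strong results did not repeat in a second test. Of about 67,000 compounds tested this way, about 40 (0.06%) reached 50% or more in at least one test.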

Each number is a percent effect as filed. The record does not define 0% and 100%; most values in the screen are far below 50% and negative numbers occur (in some assays of this library far below -100). The compounds are a random part of those screened. A dash means the value is not listed here; it may have been measured.

| Compound | A | B | C |
|---|---|---|---|
| `CCOCCCNC(=O)CN(c1ccc(C)c(C)c1)S(C)(=O)=O` | -4.119% | 9.655% | -6.316% |
| `O=C(NCCc1cccc(O)c1)NC1CCN(c2ccccc2)C1=O` (stereo unspecified) | -9.359% | 8.738% | 0.4464% |
| `CC(=O)N[C@@H]1CN(c2nc(CO)cs2)C[C@H]1c1ccc(C)o1` | -2.882% | 17.02% | -0.4963% |
| `O=C(c1cocn1)N1CCC2(CC1)CC(Oc1ccccn1)CO2` (stereo unspecified) | -28.15% | 14% | 9.221% |
| `COc1cccc(Cn2c(C)c(C)oc2=O)c1OC` | -3.199% | -15.04% | 0.6369% |
| `Cc1cc(NC(=O)NCCc2cccnc2)n(C)n1` | -17.87% | 18.18% | -3.353% |
| `CC(Cn1cncn1)NCc1ccc2nonc2c1` (stereo unspecified) | 4.715% | 6.452% | -0.2058% |
| `Cc1nc2c(c(=O)[nH]1)CN(C(=O)CCC1CCCN(C)C1)C2` (stereo unspecified) | -6.867% | 0% | 2.39% |
| `CC(C)c1nc(C(=O)N2CCCC(N)CC2)cs1` (stereo unspecified) | -9.91% | 8.791% | 3.537% |
| `Cc1nn(C)c(C)c1CC(C)NC(=O)NCc1ccoc1C` (stereo unspecified) | -14.54% | 13.39% | 4.762% |
| `O=C(c1cccc(-n2cnnc2)c1)N1C[C@@H](O)[C@H](N2CCOCC2)C1` | -6.62% | 0% | -0.9685% |
| `COc1ccccc1C(=O)Nc1ccc(OC2CCN(C)CC2)cc1` | -4.066% | 7.2% | 3.498% |
| `O=S1(=O)COCCN1Cc1ccc(Cl)c(F)c1` | 20.84% | 19.23% | 8.742% |
| `COC(=O)c1cccn1C1CCN(Cc2ccccc2)CC1` | -8.349% | 15.62% | 2.635% |
| `CC1=N[C@@]2(CC[C@@H]3CN(CC4CC4)C[C@@H]32)C(=O)N1CC(C)C` | -9.261% | 14.71% | 2.538% |
| `CCCn1cnnc1CN(C)C(=O)C1CCC(=O)N(C2CCCC2)C1` (stereo unspecified) | -31.37% | 4.167% | 1.028% |
| `Cc1noc([C@H]2C[C@@H]3CCN(c4nnc(C)s4)C[C@H]3O2)n1` | -12.48% | -2.703% | 0.495% |
| `COc1nccnc1N1C[C@@H]2CC[C@H](C1)N(CC=C(C)C)C2=O` | -3.41% | 20.51% | 1.781% |
| `COc1cc2nc(NCc3ccc(C)nc3)nc(N)c2cc1OC` | -17.49% | 20% | 6.098% |
| `Cc1nc(C)c(C)c(N2CCC(NCCOc3ccccc3)CC2)n1` | -12.39% | -4.225% | -40.27% |
| `CCOc1ccc(-c2nc(CN(C)Cc3c(C)noc3C)cs2)cc1` | 1.007% | -1.299% | 3.165% |
| `COCCC1(CO)CCCN(Cc2cc(C(F)(F)F)ccc2F)C1` (stereo unspecified) | 3.927% | 14.47% | 0.4673% |
| `Cn1ccnc1NC[C@@H]1CCC[C@@H]2CN(Cc3cccnc3)C[C@@H]21` | -20.07% | 6.849% | 1.976% |
| `CCn1cc(S(=O)(=O)NC2CCCN(CCCc3ccccc3)C2)cn1` (stereo unspecified) | -13.44% | 6.838% | -5.128% |
| `Cn1cc(CN2C[C@H]3CCC[C@@H](CNc4nccn4C)[C@H]3C2)cn1` | -23.56% | 18.97% | - |
| `CC(=O)N[C@H]1CN(S(=O)(=O)N(C)Cc2ccccc2)C[C@@H]1C1CC1` | -12.58% | 6.667% | 9.742% |
| `CCc1nc(C(=O)N2CCN(C)CC2C)nn1-c1ccccc1Cl` (stereo unspecified) | -15.27% | 16.67% | 2.504% |
| `c1ncn(CC2CCCCN2Cc2csc(C3CCCC3)n2)n1` (stereo unspecified) | - | 24.66% | 1.687% |
| `O=C1CCC2(CCOC2)CN1Cc1nncn1CCc1ccccc1` (stereo unspecified) | -9.711% | 12.39% | 1.635% |
| `Cc1cnc(N2CCC3(CC2)CC(NC(=O)N(C)C)CO3)nc1` (stereo unspecified) | -23.82% | 15.79% | 3.462% |
| `Cc1ccccc1Cn1nnc2cc3c(cc2c1=O)OCCO3` | -16% | 13.58% | 0.7653% |
| `CCOc1ccc(N(C)S(=O)(=O)c2c[nH]c(C(C)C)n2)cc1` | 11.43% | 8.547% | 3.419% |
| `NC(=O)C1CCCN(c2ncnc3c2Cc2ccccc2OC3)C1` (stereo unspecified) | -6.315% | 29.17% | -1.366% |
| `O=C(C1CCOCC1)N1C[C@@H]2[C@@H](C1)OCC(=O)N2CC1CC1` | -17.15% | -300.8% | -21.59% |
| `CC(C)(C)NC(=O)CN1CCNCC1` | 5.154% | 4% | -3.777% |
| `COc1c(Cl)cc(C(=O)NCCNc2ncccn2)cc1Cl` | -5.193% | 3.226% | -2.091% |
| `O=C(NC1CC1)c1cc(Sc2ncccn2)ccn1` | -22.73% | -7.865% | 3.646% |
| `CCS(=O)(=O)NCCNCc1cc(F)ccc1Br` | -10.12% | -1.724% | -4.069% |
| `COc1ccc(F)cc1C(C(=O)O)N1CCSCC1` (stereo unspecified) | -15.8% | 22.64% | 4.846% |
| `Cc1ccc(C)c2c(O)cc(CN3CCNC(=O)C3C)nc12` (stereo unspecified) | 5.359% | 21.31% | -0.5115% |
| `O=C(c1cccs1)N1CCC(O)(CN2CCc3ccccc3C2)C1` (stereo unspecified) | -38.63% | 13.89% | -6.111% |
| `CN1CCCCC1CCC(=O)NCCSc1cnn[nH]1` (stereo unspecified) | -89.25% | 7.527% | 2.263% |
| `O=C(O)[C@@H]1CN(C(=O)NCC2CCCCC2)C[C@H]1c1ccccn1` | -4.213% | -12.86% | -11.27% |
| `Cn1ccnc1CN1CCC(Cn2cc(-c3ccncc3)nn2)CC1` | 3.938% | 7.143% | -7.992% |
| `Cc1ccnc(OCC(=O)N2CCC(C(N)=O)CC2)n1` | -2.814% | 23.08% | 5.757% |
| `CC(C)(NCc1cccc(C(N)=O)c1)c1ccc2c(c1)OCO2` | -10.18% | 13.33% | 2.233% |
| `O=C(CCc1cccnc1)N1CCCC(n2cncn2)C1` (stereo unspecified) | -22.72% | 3.371% | 2.828% |
| `COCc1nc(CN2CC(C)(c3ccccc3)CCC2=O)no1` (stereo unspecified) | -7.793% | 8.333% | 4.069% |
| `CCn1c(NCc2ccccc2)nc2c(C)nn(C)c2c1=O` | -12.19% | 13.79% | 1.386% |
| `CCC(C(=O)N(C)Cc1cc(C2CC2)[nH]n1)n1cccn1` (stereo unspecified) | -29.53% | 9.639% | 0.9709% |
| `Cc1c[nH]nc1C1CCCCN1C(=O)Cn1cc(Cl)cn1` (stereo unspecified) | -9.67% | 11.43% | -7.723% |
| `Cc1cc(C(=O)NCC(F)(F)F)c2c(C3CCNCC3)noc2n1` | -8.102% | 19.31% | 5% |
| `Cc1ccc(S(=O)(=O)N(CCO)C2CC2)cc1N(C)C` | -13.86% | 8.29% | -0.3822% |